The source of these data is US20130130273A1 (KOREA BASIC SCIENCE INSTITUTE, published 2013).

Test [1] addresses TMD-HcR-p38 (UniProt Q13155). The test is described as follows: co-translocation of a five-protein complex with TMD-HcR-p38 after PMA, confocal microscopy, HEK-293 cells; binding to p38 may be indirect.
Test [2] addresses TMD-HcR-p38 (UniProt Q13155). The test is described as follows: co-translocation of a five-protein complex with p38 first construct after PMA, HEK293 cells; binding to p38 may be indirect.

No constants are given. Whether binding was seen depends on the method and setting. Some binding calls cover weakened binding; strength is not graded here. Where a sequence is shown, tags or fusion partners need not be part of it.

B1: GFP-DRS (protein, UniProt P14868 1-501, looked up, not shown: large carriers)
chain: MPSASASRKSQEKPREIMDAAEDYAKERYGISSMIQSQEKPDRVLVRVRDLTIQKADEVVWVRARVHTSRAKGKQCFLVLRQQQFNVQALVAVGDHASKQMVKFAANINKESIVDVEGVVRKVNQKIGSCTQQDVELHVQKIYVISLAEPRLPLQLDDAVRPEAEGEEEGRATVNQDTRLDNRVIDLRTSTSQAVFRLQSGICHLFRETLINKGFVEIQTPKIISAASEGGANVFTVSYFKNNAYLAQSPQLYKQMCICADFEKVFSIGPVFRAEDSNTHRHLTEFVGLDIEMAFNYHYHEVMEEIADTMVQIFKGLQERFQTEIQTVNKQFPCEPFKFLEPTLRLEYCEALAMLREAGVEMGDEDDLSTPNEKLLGHLVKEKYDTDFYILDKYPLAVRPFYTMPDPRNPKQSNSYDMFMRGEEILSGAQRIHDPQLLTERALHHGIDLEKIKAYIDSFRFGAPPHAGGGIGLERVTMLFLGLHNVRQTSMFPRDPKRLTP
With B1, the binding result in test [1] and in test [2] was “binds” throughout.

B2: CFP-RRS (protein, UniProt P54136 1-660, looked up, not shown: large carriers)
chain: MDVLVSECSARLLQQEEEIKSLTAEIDRLKNCGCLGASPNLEQLQEENLKLKYRLNILRKSLQAERNKPTKNMINIISRLQEVFGHAIKAAYPDLENPPLLVTPSQQAKFGDYQCNSAMGISQMLKTKEQKVNPREIAENITKHLPDNECIEKVEIAGPGFINVHLRKDFVSEQLTSLLVNGVQLPALGENKKVIVDFSSPNIAKEMHVGHLRSTIIGESISRLFEFAGYDVLRLNHVGDWGTQFGMLIAHLQDKFPDYLTVSPPIGDLQVFYKESKKRFDTEEEFKKRAYQCVVLLQGKNPDITKAWKLICDVSRQELNKIYDALDVSLIERGESFYQDRMNDIVKEFEDRGFVQVDDGRKIVFVPGCSIPLTIVKSDGGYTYDTSDLAAIKQRLFEEKADMIIYVVDNGQSVHFQTIFAAAQMIGWYDPKVTRVFHAGFGVVLGEDKKKFKTRSGETVRLMDLLGEGLKRSMDKLKEKERDKVLTAEELNAAQTSVAYGCIKYADLSHNRLNDYIFSFDKMLDDRGNTAAYLLYAFTRIRSIARLANIDEEMLQKAARETKILLDHEKEWKLGRCILRFPEILQKILDDLFLHTLCDYIYELATAFTEFYDSCYCVEKDRQTGKILKVNMWRMLLCEAVAAVMAKGFDILGIKPVQRM
Regarding B2, the binding result in test [1] and in test [2] was “binds” throughout.
